According to PubChem BioAssay AID493014 (National Center for Advancing Translational Sciences (NCATS), 2011):
Some of the results follow. Shown are side measurements of this screen, not its main read-out; they come without a call. The list favours compounds with an active or inconclusive main result. The note in brackets gives the kind of curve behind each potency; many fits are weak.

Assay: qHTS Assay to Find Inhibitors of Chronic Active B-Cell Receptor Signaling
Details: ABC-DLBCL IkBa-CBG/CBR reporter, luminescence ratio (green luciferase fused to IkBa over red control in TMD8 lymphoma cells), 4 h
How it was run: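 TMD8 ABC-DLBCL cells carrying doxycycline-inducible green luciferase fused to IkappaBalpha plus unfused red luciferase were exposed to compounds (up to 46 uM) for 4 hrs at 37C. Activity came from the overlap-corrected green/red luminescence ratio.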

[1] = measured here: CBR red luminescence, cell number
[2] = measured here: IkBa-CBG green luminescence

SMILES	AC50 [1]	AC50 [2]
Cc1ccc(S(=O)(=O)N2CCCN(C)CC2)cc1	5.01 µM [rising, single point]	
CC(C)OC1(c2ccccc2)OC(=O)c2ccccc21 (stereo not drawn)	7.94 µM [rising, partial curve, poor fit]	
Cc1ccc(S(=O)(=O)NCCC(=O)NCCCSc2ccccc2)cc1		20.6 µM [falling, partial curve, poor fit]
CSc1nsc(SCC(=O)Nc2nc3ccccc3s2)n1	18.4 µM [falling, single point]	18.4 µM [rising, partial curve, poor fit]
Cc1c(Cl)cccc1N1CC(C(=O)Nc2nccs2)CC1=O (stereo not drawn)	29.1 µM [falling, single point]	
S=C(NCc1cccs1)Nc1cccc(Cl)c1Cl	3.26 µM [rising, single point]	
O=C1CN(C(=O)OCc2ccccc2)c2ccccc2N1	7.08 µM [falling, partial curve]	
CC1CCN(c2c([N+](=O)[O-])c(=O)oc3ccccc23)CC1	23.1 µM [falling, single point]	
CN(C)/N=C/c1ccc(/C=N/NC(N)=S)o1	14.1 µM [rising, partial curve, poor fit]	
O=C(Nc1cccc(NC(=O)c2ccco2)c1)c1ccc2c(c1)OCO2	2.82 µM [falling, full curve]	
O=C(O)c1cc(N/N=C2/CC(c3ccccc3)Oc3ccccc32)ccc1Cl (stereo not drawn)	23.1 µM [falling, single point]	
CCc1c(C(=O)N/N=C/c2sccc2C)nnn1-c1nonc1N	3.55 µM [falling, full curve, poor fit]	
CC(NC(=O)CNC(=O)c1ccco1)c1ccc(S(N)(=O)=O)cc1 (stereo not drawn)	35.5 µM [falling, single point]	
C=CCOc1ccc(C2C(C(=O)c3ccco3)=C(O)C(=O)N2c2nnc(C)s2)cc1 (stereo not drawn)	35.5 µM [rising, single point]	
Cc1[nH]c2ccc(C(=O)N3CCN(c4cccc(Cl)c4)CC3)cc2c1C	4.47 µM [rising, partial curve, poor fit]	11.2 µM [falling, partial curve, poor fit]
Cn1ncc2c(Nc3ccc(Br)cc3)nc(Nc3ccc(Br)cc3)nc21	12.6 µM [falling, partial curve, poor fit]	
CC[N+](C)(CC)CCC[n+]1c(-c2ccccc2)c2cc(N)ccc2c2ccc(N)cc21	29.1 µM [falling, single point]	
O=C(COc1ccc(Cl)cc1Cl)NC(=S)Nc1ccc(CN2CCOCC2)cc1	35.5 µM [rising, single point]	
Nn1c(-c2ccccc2Cl)nnc1-c1ccccc1Cl	10.3 µM [falling, partial curve, poor fit]	
Cc1ccc(CNC(=O)Cc2cccs2)cc1	18.4 µM [falling, partial curve]	16.4 µM [rising, partial curve, poor fit]
O=C(O)CCCn1cc(NC(=O)c2sc3ccccc3c2Cl)cn1	0.562 µM [falling, full curve, poor fit]	2.82 µM [falling, partial curve, poor fit]

A second format for three compounds above:
S=C(NCc1cccs1)Nc1cccc(Cl)c1Cl
  AC50 [1]: 3.26 µM [rising, single point]
O=C1CN(C(=O)OCc2ccccc2)c2ccccc2N1
  AC50 [1]: 7.08 µM [falling, partial curve]
CC1CCN(c2c([N+](=O)[O-])c(=O)oc3ccccc23)CC1
  AC50 [1]: 23.1 µM [falling, single point]

Next structures follow.

SMILES	AC50 [1]	AC50 [2]
NCCCC[C@H]1CNC(=S)N1CCCCC1CCCCC1	10 µM [falling, partial curve, poor fit]	
O=C(N/N=C/c1cc([N+](=O)[O-])ccc1O)c1cccc2cc[nH]c12	11.2 µM [falling, partial curve]	
O=C(Nc1cccnc1)c1cc2nc(C3CC3)cc(C(F)(F)F)n2n1	3.26 µM [rising, full curve, poor fit]	
Cc1ccc(S(=O)(=O)CCC(=O)Nc2nnc(-c3cccs3)o2)cc1	18.4 µM [falling, single point]	18.4 µM [rising, partial curve, poor fit]
Cc1cc(=O)[nH]c(SCC(=O)Nc2ccc3c(c2)CCC3)c1C#N	3.66 µM [rising, single point]	
Cc1onc(-c2ccc(Cl)cc2)c1-c1ccnc(SCC(=O)Nc2ccc(C(C)C)cc2)n1	0.708 µM [rising, full curve, poor fit]	
Cc1ccc(-c2csc3ncnc(N4CCN(S(=O)(=O)c5cccs5)CC4)c23)cc1	20.6 µM [rising, partial curve, poor fit]	
Cc1cc(C)c(NC(=O)COc2ccccc2C(=O)Nc2ccc3c(c2)oc2ccccc23)c(C)c1	0.461 µM [falling, full curve, poor fit]	
COc1cc(/C=N/NC(=O)c2ccc3c(c2)OCO3)ccc1O	3.55 µM [falling, partial curve]	
COc1cc(CN(C(=S)NCC(=O)N2CCCC2)C2CCCC2)cc(OC)c1OC	10 µM [rising, partial curve, poor fit]	
CC1CCCC(NC(=S)Nc2ccc(SC(F)F)cc2)C1C (stereo not drawn)	13 µM [falling, single point]	
N#C/C(=C/c1ccc(Sc2nc3ccccc3[nH]2)o1)c1cccc(F)c1	20.6 µM [falling, single point]	
CCOC(=O)c1cccc(N2C(=O)Nc3ccccc3N2O)c1	6.51 µM [rising, partial curve, poor fit]	
COc1ccc(CCC(=O)OCc2csc(CC(=O)Nc3ccc(C)cc3)n2)cc1OC	0.231 µM [rising, full curve, poor fit]	
CC(=O)c1cc(C#N)c(NCc2ccccc2)nc1C	12.6 µM [rising, partial curve, poor fit]	
O=C(NC1CCCCC1)c1ccc(S(=O)(=O)N2CCCCC2)cc1	32.6 µM [falling, partial curve, poor fit]	
COc1cc(/C=C2/C(=O)c3cccc([N+](=O)[O-])c3C2=O)c(Br)cc1O	23.1 µM [falling, single point]	
Oc1c(Cl)cc(Cl)cc1C=Nc1ccc(Br)cc1	10 µM [falling, partial curve]	
COc1cc2c(cc1NC(=O)c1cccc([N+](=O)[O-])c1)oc1ccccc12	1.64 µM [rising, single point]	
CC(C)(C)NCC(O)COc1ccccc1C(=O)CCc1ccccc1 (stereo not drawn)	3.66 µM [rising, partial curve, poor fit]	
COc1cc(C2C(C#N)=C(N)Oc3cc(O)ccc32)cc(OC)c1OC (stereo not drawn)	3.16 µM [rising, single point]	3.55 µM [falling, single point]

SMILES	AC50 [1]	AC50 [2]
COc1ccc(OC)c(NC(=O)CSc2nc3ccccc3c(=O)n2CC2CCCO2)c1 (stereo not drawn)	3.16 µM [rising, full curve]	
COc1cc2c(cc1NC(=O)C(C)OC(=O)c1ccc(S(=O)(=O)Nc3ccccc3Cl)cc1)oc1ccccc12 (stereo not drawn)	20 µM [falling, partial curve, poor fit]	
O=C(Nc1ccccc1C(F)(F)F)N1CCN(c2ccc3nnc(-c4ccc(F)cc4)n3n2)CC1	11.2 µM [falling, single point]	
CCn1c(CCCOc2ccc(Cl)cc2Cl)nnc1SCC(=O)Nc1cc(F)ccc1C	29.1 µM [falling, single point]	
N#Cc1c(NC(=O)CSc2n[nH]c(Cc3ccccc3)n2)oc(-c2ccccc2)c1-c1ccccc1	28.2 µM [falling, single point]	
O=C(CCC1CCCN(C(=O)c2ccoc2)C1)NCc1ccc(F)c(F)c1 (stereo not drawn)	35.5 µM [rising, single point]	
NC(=O)c1ccccc1NC(=O)COc1ccc2c(c1)OCO2	14.1 µM [falling, single point]	
CCCc1cc(=O)oc2c(CN3CCCC3)c(O)ccc12	3.16 µM [rising, full curve, poor fit]	
CN(C)S(=O)(=O)c1cccc(-c2nn(-c3ccccc3)cc2/C=C2\SC(=S)NC2=O)c1	0.517 µM [rising, full curve]	
Cc1ccc(OCC(=O)NCCO)c(Br)c1	35.5 µM [falling, single point]	35.5 µM [rising, partial curve, poor fit]
Cc1nc(SCC(=O)c2cc3ccccc3oc2=O)c(C#N)c(C)c1C(=O)Nc1ccccc1	17.8 µM [falling, partial curve, poor fit]	
NS(=O)(=O)c1cccc(NC(=O)c2cccc(Oc3ccccc3)c2)c1	20 µM [rising, partial curve, poor fit]	
O=C(Nc1ccc2[nH]c(=S)sc2c1)Nc1ccccc1F	10 µM [falling, partial curve]	
Cn1c(=O)oc2cc(S(=O)(=O)Nc3ccc(O)cc3)ccc21	6.31 µM [falling, single point]	
O=C1c2oc3ccc(Cl)cc3c(=O)c2C(c2cccc(Br)c2)N1CCO (stereo not drawn)	15.8 µM [falling, single point]	
O=C1CC(NNc2ccccc2)C(=O)N1c1ccccc1 (stereo not drawn)	14.6 µM [falling, partial curve, poor fit]	
O=C(CSc1n[nH]c(-c2ccccc2)n1)N1CCOCC1	35.5 µM [falling, single point]	
CCCCN1/C(=C/c2cccc[n+]2C)Sc2cc(NC(C)=O)ccc21	12.6 µM [rising, single point]	
CCCCOc1ccc(/C(O)=C(\C#N)c2nc3ccccc3[nH]2)cc1	17.8 µM [rising, partial curve, poor fit]	
